Source: patent US20140275490A1
Where a chain is given by its changes, count along the chain named. Results are given in words; binding and its absence hold for the method and conditions named. Some binding calls cover weakened binding; strength is not graded here.

By UniProt entry, the sequences of proteins in these tests, tags left out. Where a name states a change or a piece, a line headed by the entry shows the natural chain unless it says otherwise.
UniProt Q5VWK5: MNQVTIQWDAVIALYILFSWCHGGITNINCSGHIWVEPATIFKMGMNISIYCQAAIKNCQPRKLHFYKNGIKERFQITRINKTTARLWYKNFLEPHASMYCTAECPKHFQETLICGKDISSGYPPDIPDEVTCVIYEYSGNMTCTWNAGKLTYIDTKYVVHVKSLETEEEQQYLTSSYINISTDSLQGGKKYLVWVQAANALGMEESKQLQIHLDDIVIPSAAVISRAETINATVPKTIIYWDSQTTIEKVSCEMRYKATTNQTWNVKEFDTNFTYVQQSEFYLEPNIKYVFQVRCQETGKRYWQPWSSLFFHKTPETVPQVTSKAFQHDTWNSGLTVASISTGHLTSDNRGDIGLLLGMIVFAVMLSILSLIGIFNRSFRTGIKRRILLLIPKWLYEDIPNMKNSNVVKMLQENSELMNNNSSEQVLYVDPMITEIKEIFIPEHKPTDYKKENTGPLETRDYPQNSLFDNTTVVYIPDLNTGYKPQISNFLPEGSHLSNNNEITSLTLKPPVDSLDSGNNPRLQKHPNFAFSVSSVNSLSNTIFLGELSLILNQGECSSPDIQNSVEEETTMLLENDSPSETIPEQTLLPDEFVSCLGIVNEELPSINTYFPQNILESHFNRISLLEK

B1: 25-3 (chimeric) (antibody, V domains shown)
VH: QVQLQESGPGQVKPSQTLSLTCSVSGGSIDSGDHYWTWIRQHPGEVLEWIGYIYSSGHTYYSPSLKSRLTMSLDTSKNQFSLRLSSVTAADTAVYYCARVGDYEWFDTWGQGTLVTVSS
VL: DIVMTQSPDSLAVSLGERATINCKSSQTILYPSNNMNYLGWYQQRAGQSPRLLIYWASTRESGVPDRFSGSGSGTDFTLTISSLQAEDVAVYYCQQYYSSLPTFGQGTKVEIKR
B2: 30-15 (chimeric) (antibody, V domains shown)
VH: QVQLVQSGAEVKKPGASMKVSCKVSGYTLNELSIHWVRQAPGKGLEWMGGFDPEHGETVYAQNFQDRVTLTEDTSTDTSYMGLNNLRSDDTAVYYCAAESYGDYEFWGQGTLVTVSS
VL: DIQMTQSPSSVSASVGDRVTITCRASQGINNWLAWYQQKPGKAPKVLIYTASSLQSGVPSRFSGSGSGTDFTLTISSLQPEDFATYYCQQANSHPWTFGQGTKVEIKR
B3: 30-16 (chimeric) (antibody, V domains shown)
VH: QVQVVQSGAEVKKPGASVKVSCKVSGYTLIELAIHWVRQVPGKGLEWMGGFDPEHGETIYAQKFQGRVTMTEDTSTDTAYMELNNLRSEDTAVYYCAILEAGDLDCWGQGTLVTVSS
VL: B2 VL with N30S, I75V, S77G, A84G, H94F, W96F, Q100P, E105D
B4: 30-18 (chimeric) (antibody, V domains shown)
VH: B2 VH with M18V, G56S, V59L, V68L, D77E, S79A, Y80C, G82E, N85S
VL: B2 VL with G28D, N30S, N31S
B5: 32-28 (chimeric) (antibody, V domains shown)
VH: QVHLVQSGTEVRKPGASVKVSCKVSGYTLNELAIHWVRQAPGKGLEWMGGFDPEHGEIIYAQRFQGRVTLPEDTSTDTAYLDLFNLRSEDTAVYFCATEAAPFDYWGQGTLVIVSS
VL: DIQMTQSPSTLSASVGDRVTITCRASQSLSSWLAWYQQKPGKAPKLLIYKASSLESGVPSRFSGSGSGTDFTLTISSLQPDDFATYYCQQYDIYPRTFGQGTKVEIKR
B6: 34-58 (chimeric) (antibody, V domains shown)
VH: B5 VH with V68I, L81M, F84V, A97T, T110S
VL: B5 VL with S31N, S77G
B7: fully human antibody 25-3 (antibody, human IgG1, kappa, V domains shown)
VH: B1 VH
VL: B1 VL
B8: fully human antibody 30-15 (antibody, human IgG1, kappa, V domains shown)
VH: B2 VH
VL: B2 VL
B9: fully human antibody 30-16 (antibody, human IgG1, kappa, V domains shown)
VH: B3 VH
VL: B2 VL with N30S, I75V, S77G, A84G, H94F, W96F, Q100P, E105D
B10: fully human antibody 30-18 (antibody, human IgG1, kappa, V domains shown)
VH: B2 VH with M18V, G56S, V59L, V68L, D77E, S79A, Y80C, G82E, N85S
VL: B2 VL with G28D, N30S, N31S
B11: fully human antibody 32-28 (antibody, human IgG1, kappa, V domains shown)
VH: B5 VH
VL: B5 VL
B12: fully human antibody 34-58 (antibody, human IgG1, kappa, V domains shown)
VH: B5 VH with V68I, L81M, F84V, A97T, T110S
VL: B5 VL with S31N, S77G

What follows are binders tested against human IL-23R-mouse Fc fusion protein (human; mouse) (UniProt Q5VWK5) (assay: antigen ELISA, human IL-23R-Fc immobilized).

**Q.** For B1, which binding is on record?
**A.** binds

**Q.** B2 was tested. Which binding did it give?
**A.** binds

**Q.** For B3, which binding is on record?
**A.** binds

**Q.** For B4, which binding is on record?
**A.** binds

**Q.** How did the binding turn out when B5 was run?
**A.** binds

**Q.** B6 was tested. Which binding did it give?
**A.** binds

**Q.** Which binding does the source give for B7 here?
**A.** binds

**Q.** For B8, which binding is on record?
**A.** binds

**Q.** How did the binding turn out when B9 was run?
**A.** binds

**Q.** With B10 as the binder, how does the binding read?
**A.** binds

**Q.** For B11, which binding is on record?
**A.** binds

**Q.** With B12 as the binder, how does the binding read?
**A.** binds
